Laboratory results taken from patent publication US6852759B2, “Process for the synthesis of trans-alkenoic acids, use thereof” (priority 2002, dated 2005).
At least one structure is not confirmed: it was looked up by name or label, or the drawing left a doubt. Marks after values point to notes of the source that are not given here.

Legend:
[1] = test system: CCl4 induced hepatic injury in rats; assay: Hepatoprotective activity, prophylactic study, CCl4; type: in vivo; conditions: 50 mg/kg p.o. + CCl4, prophylactic
[2] = test system: alcohol induced hepatic damage in rats; assay: Hepatoprotective activity against alcohol induced hepatic damage (serum and hepatic parameters); type: in vivo; conditions: 50 mg/kg + Alcohol, serum

CCCCCCCC/C=C/CCCCCCCCCCCCCC(=O)O [TCA, t-Tetracos-15-enoic acid]
Serum Triglycerides, hepatoprotective activity percent [1]: (51.77 = 11.46) percent
SGPT [2]: 220.00 = 11.30**^β U/I
